The IC50 is the point on the concentration scale where inhibition reaches its midpoint.

SMILES strings stand for the structures.

For the experiment, the system named is LAPC-4 cells. The experiment is described as follows: LAPC-4 cell viability proliferation and combination index assays (MTS, 6 days). It counts as cell-based. The following applies: Homo sapiens, LAPC4, 144 h, LAPC-4, six days; single drugs and 1:1 combinations; read-out: IC50 (Figure 2B). How it is done: LAPC-4 cells (1 × 10^4 cells/well) were seeded in triplicate in 96-well plates in IMDM (Iscove’s modified Dulbecco’s medium) (90 μL) supplemented (v/v) with 5% fetal FBS, 1% L-glutamine, 1% insulin, and 1% penicillin/streptomycin. The cells were incubated at 37 °C in a 5% CO2 humidified atmosphere for 24 h. […] After 6 days of incubation, the cell proliferation was determined by adding 10 µL of MTS followed by incubation at 37 °C for 4 h. Plates were then analyzed at 490 nm using a Tecan M-200 microplate reader (Männedorf, Switzerland). Using GraphPad Prism 7 software, the IC50 values were calculated. The values represent the average of two independent experiments performed in triplicate. According to the Chou–Talalay method and using the following formula, the CI (combination) was calculated. CI=(D)1/(DX)1+(D)2/(DX)2
Denominators (DX)l and (DX)2 are the doses of individual drugs required to achieve a given effect level, and numerators (D)1 and (D)2 are the concentrations of each drug present in combination to trigger the same effect level. When the drugs interact additively, CI = 1, but a CI < 1 indicates a synergistic interaction, and a CI > 1 indicates an antagonistic effect.

On to `CNC(=O)c1ccc(N2C(=S)N(c3ccc(C#N)c(C(F)(F)F)c3)C(=O)C2(C)C)cc1F` [enzalutamide, reference compound], for which the IC50 came out at 34.8 µM.

For the origin of these results see paper PMC10252594 (Cancers, 2023).
